Measurements reported in PubChem BioAssay AID652259 (Drosophila RNAi Screening Center, 2013).

Aim: 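Identify new Wingless signalling regulators in fly cells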 (primary screen)
Cell system: Drosophila clone 8 imaginal disc epithelial cells
Reagent: long dsRNA against Drosophila genes
Treatment: pathway stimulated by co-transfected Wingless expression plasmid
Measured: 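Firefly luciferase from a tcf-site Wingless reporter, measured alongside co-transfected Renilla luciferase that tracks transfection; pathway stimulated by a Wingless plasmid; the firefly-to-Renilla ratio is not deposited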
Direction: firefly reporter light: higher = more Wg reporter light, before normalisation; Renilla control light: higher = more transfected or surviving cells
Hit rule: 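a knock-down is a candidate when at least two out of four statistical tests show it departing from its plate mean; one test alone signals a weak candidate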
Calls: active = candidate regulator (raises or lowers reporter); inactive = not a candidate
The deposit covers about 22,000 reagents; below is a random part of those with a known target gene and a result. Over the whole deposit, 233 (1.1%) are marked active. 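Light values are raw, unnormalised plate reads; the ratio scores behind the reporter calls were not deposited.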 Names joined by + are all predicted targets of the reagent. The record does not give: the amount of reagent, the time to read-out, the dose of the treatment.

no.	target gene	DRSC id	reporter change call, replicate 1	firefly reporter light, replicate 1	firefly reporter light, replicate 2	Renilla control light, replicate 1	Renilla control light, replicate 2	call
1	CG13532	DRSC04174		3689	10034	758	3927	inactive
2	CG6951	DRSC10755		8426		2171		inactive
3	rad50	DRSC04523		3722		1046		inactive
4	CG15126	DRSC06548		8817		2936		inactive
5	Vago	DRSC19833		21027		10968		inactive
6	CG8176	DRSC16394		14867		3268		inactive
7	CG6380	DRSC02950		3108	7104	1389	3127	inactive
8	CR31822	DRSC01510		19768		8541		inactive
9	CG12017	DRSC08225		6771		2866		inactive
10	Srp14	DRSC15797		19816		4907		inactive
11	CG12016 + Dpm2	DRSC08224		4211		1302		inactive
12	Pph13	DRSC00775		9597		2626		inactive
13	ncm	DRSC02179		10114		1770		inactive
14	Hexim	DRSC15490		4920		1568		inactive
15	Mad1	DRSC07561		9693		2765		inactive
16	CG4098	DRSC10399		9786		4268		inactive
17	scw	DRSC01711		14997		7499		inactive
18	scw	DRSC21252		20960		12764		inactive
19	RpS8	DRSC16318		5922		2384		inactive
20	CG12784	DRSC14539		14519		4359		inactive
21	CG18234	DRSC10309		8064		3147		inactive
22	RpL24	DRSC03185		3268	6502	779	1848	inactive
23	CG9356	DRSC16476		5671		1736		inactive
24	lin-28	DRSC10261		2443	8611	1792	4710	inactive
25	CG15011	DRSC08464		2643		1496		inactive
26	bsf	DRSC02035		10717		3347		inactive
27	CG11414	DRSC04110		7964		3132		inactive
28	gammaSnap1	DRSC04686		12042		3133		inactive
29	sac	DRSC12237		10156		2832		inactive
30	CG10802	DRSC17762		3639	8512	1765	3869	inactive
31	Cyp4e1	DRSC07370		2784	5955	624	2042	inactive
32	CG13613	DRSC14616		17537		14144		inactive
33	TpnC47D	DRSC07564		9715		3824		inactive
34	CG15475	DRSC02486		2397	7243	709	2669	inactive
35	lncRNA:CR34046	DRSC14075		4077		1302		inactive
36	CG34435	DRSC18086		14839		6844		inactive
37	Brf	DRSC13228		5666		1227		inactive
38	Brf	DRSC14166		13680		3988		inactive
39	Brf	DRSC14167		15280		4139		inactive
40	Faa	DRSC08451		5453		2338		inactive
41	Cyp6d4	DRSC16633		3147	5232	1794	2354	inactive
42	Csl4	DRSC02944		4720	9988	1376	5265	inactive
43	Csl4	DRSC22664		3.95e5	4.13e5	1.92e5	1.64e5	inactive
44	CG44085	DRSC02922	Wg reporter activity raised	3440	11762	501	2555	active
45	CG44085	DRSC02929		2737	10208	1465	4876	inactive
46	unk	DRSC17093		5105	11805	2042	3130	inactive
47	CG30062	DRSC21737		3.24e5	4.22e5	85435	79934	inactive
48	CG15278	DRSC02481		2865	9355	1248	3882	inactive
49	CG15322	DRSC20680		15744		5757		inactive
50	CG12307	DRSC02159		2970	6641	630	3410	inactive
51	CG12783	DRSC14538		10291		3434		inactive
52	Nup188	DRSC21830		7.76e5	8.20e5	2.75e5	2.62e5	inactive
53	Miro	DRSC15795		3216	5847	1344	2276	inactive
54	CG17764	DRSC18135		17829		5003		inactive
55	CG13685	DRSC10043		1658	7314	1552	2940	inactive
56	Sf3a1	DRSC15166		4293	5938	1034	1733	inactive
57	SmD2	DRSC12536		12528		2435		inactive
58	CG3270	DRSC04988		10560		3356		inactive
59	AlaRS-m	DRSC09660		4320		1984		inactive
60	Hsp67Ba	DRSC11191		6278		1680		inactive
61	Ance-2	DRSC02539		2153	6529	849	2832	inactive
62	kermit	DRSC06074		9307		2064		inactive
63	CG12480	DRSC19460		26464		10858		inactive
64	Lrr47	DRSC03365		12475		1797		inactive
65	Snx1	DRSC00531		1744	5525	851	2198	inactive
66	dpr3	DRSC00395		3027	6072	1348	2294	inactive
67	dpr3	DRSC00396		4261	8317	1253	2186	inactive
68	dpr3	DRSC21369	Wg reporter activity raised	3.44e5	4.29e5	40384	36732	inactive
69	eIF4EHP	DRSC13653		4406		2032		inactive
70	eIF4EHP	DRSC14265		1490	6202	728	2018	inactive
71	Vha55	DRSC16896		12502		3581		inactive
72	comm	DRSC11336		5121		2976		inactive
73	CG10465	DRSC04848		2093	3346	557	1739	inactive
74	hrm	DRSC04853		2199	6810	856	2262	inactive
75	CG12983	DRSC11692		17757		5626		inactive
76	CG11634	DRSC03700		2025	6746	672	2609	inactive
77	ect	DRSC10675		9776		4070		inactive
78	ect	DRSC11343		9936		1842		inactive
79	ect	DRSC22357		5.29e5	5.87e5	1.61e5	1.86e5	inactive
80	CG17991	DRSC15294		5755		4129		inactive
81	PGRP-SD	DRSC10856		1408	4188	1258	2384	inactive
82	CG33259	DRSC10854		5372		2902		inactive
83	GstE12	DRSC04047		2676	4493	616	1585	inactive
84	CG34301	DRSC12704		2807		1243		inactive
85	Cow	DRSC13601		3012		315		inactive
86	Cow	DRSC14680		13765		13523		inactive
87	inc	DRSC17954		22456		14407		inactive
88	inc	DRSC18512		4104	9463	1956	3514	inactive
89	Baldspot	DRSC09671		11549		4419		inactive
90	sd	DRSC20370		20614		9152		inactive
91	sd	DRSC21712		8.63e5	7.49e5	4.15e5	256	inactive
92	CG11686	DRSC14350		14156		1862		inactive
93	ash1	DRSC11325		13104		1924		inactive

11 successive entries already listed, quoted:
no.	target gene	DRSC id	reporter change call, replicate 1	firefly reporter light, replicate 1	firefly reporter light, replicate 2	Renilla control light, replicate 1	Renilla control light, replicate 2	call
80	CG17991	DRSC15294		5755		4129		inactive
81	PGRP-SD	DRSC10856		1408	4188	1258	2384	inactive
82	CG33259	DRSC10854		5372		2902		inactive
83	GstE12	DRSC04047		2676	4493	616	1585	inactive
84	CG34301	DRSC12704		2807		1243		inactive
85	Cow	DRSC13601		3012		315		inactive
86	Cow	DRSC14680		13765		13523		inactive
87	inc	DRSC17954		22456		14407		inactive
88	inc	DRSC18512		4104	9463	1956	3514	inactive
89	Baldspot	DRSC09671		11549		4419		inactive
90	sd	DRSC20370		20614		9152		inactive
